# Data: PubChem BioAssay AID504834 (National Center for Advancing Translational Sciences (NCATS), 2011)
# The campaign covered roughly 320,000 compounds. About 22,000 (6.9%) were called active. Inconclusive results, whose numbers are uncertain, are shown with a selection of clear calls. Calls come from the whole dose curve; as a rule, active = well fitted inhibition curve with a large enough effect; inconclusive = small, poorly fitted or top-dose-only effect, or another doubt; inactive = no such curve, though single readings can be large or run the other way. Potencies beside an inconclusive call are fits to weak or partial responses and may not hold up.
# Assay: Primary qHTS for delayed death inhibitors of the malarial parasite plastid, 96 hour incubation
# Settings: P. falciparum luciferase reporter growth; series mostly up to 28.7 µM; activity change, negative = inhibition: at the top concentration
# Method in brief: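 Compounds incubated with erythrocytes infected by luciferase-expressing P. falciparum (2% hematocrit, 0.05% parasitemia final) for 96 hours, 37 C in 5% CO2. Growth inhibition scored as decreased luciferase luminescence.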
# % is set by controls: 0 for no effect and ±100 for the full control effect; potency is the fitted concentration of half-maximal effect.
Compound,"activity change, negative = inhibition",Potency
CCCNC(=O)c1cc2cc([N+](=O)[O-])ccc2s1,inactive: 27.4%,
CC(=O)c1sc(Nc2nc3cc4c(cc3s2)OCO4)nc1C,,"inconclusive: 2.33 µM [inhibitor, single point]"
Cc1cccc(NC(=S)NN(Cc2ccccc2)c2ccccc2)c1C,,active: 4.15 µM
CCN1CCN(c2nc(C)nc3c2sc(=S)n3C)CC1,,active: 3.7 µM
COc1ccc(NCc2nnc(-c3ccccc3)o2)cc1,,"inconclusive: 18.5 µM [inhibitor, single point]"
CN(CC(=O)Nc1cccc(F)c1)C(=O)CSc1ccccc1F,inactive: 17%,
COc1cc(C(=O)OC2C[C@H]3CC[C@@H](C2)N3)ccc1O (some centres not stated),,"inconclusive: 18.5 µM [inhibitor, single point]"
CCOC(=O)CSc1nc2sc3c(c2c(=O)[nH]1)CC(C)(C)OC3,inactive: 8.53%,
Cc1ncc(N=Nc2ccccc2Cl)c(-c2ccccc2)n1,,"inconclusive: 18.5 µM [inhibitor, single point]"
Cc1ccc(C)n1CCN1CCN(S(=O)(=O)c2ccc(F)cc2F)CC1,,active: 13.1 µM
NC(=O)c1cc(NC(=O)CCc2nc3ccccc3s2)cc(C(N)=O)c1,,"inconclusive: 6.57 µM [inhibitor, partial curve]"
Cc1cnc(NC(=O)c2cc3c(C)nn(-c4ccccc4)c3s2)s1,,"inconclusive: 16.5 µM [inhibitor, single point]"
CN(C)C(=S)Nc1ccc2c(c1)OCO2,inactive: 9.42%,
COc1ccc(CCN(C)c2ccc(S(=O)(=O)N3CCCC3)cc2[N+](=O)[O-])cc1OC,inactive: 0%,
O=C(/C=C/c1cc([N+](=O)[O-])ccc1OC(F)F)Nc1cccc(OC(F)F)c1,,active: 8.28 µM
COc1ccc(C2=NS(=O)(=O)N(C)C(C(=O)NC3CCCCC3)=C2)cc1OC,inactive: -8.02%,
Cc1cc(C)n(-c2ccc(C(=O)Nc3ccc(S(=O)(=O)N(C)C)cc3)cc2)n1,,"inconclusive: 18.5 µM [inhibitor, single point]"
CC(=O)OCC(=O)[C@@]1(O)[C@H](C)C[C@H]2[C@@H]3CCC4=CC(=O)C=C[C@]4(C)[C@@]3(F)[C@@H](O)C[C@@]21C,inactive: -14%,
O=C1/C(=C\c2cccs2)SC(=S)N1C1CCS(=O)(=O)C1 (configuration not stated),,"inconclusive: 14.7 µM [inhibitor, single point]"
O=C(COC(=O)Cc1ccc(S(=O)(=O)N2CCOCC2)s1)NCCc1ccccc1,,"inconclusive: 13.1 µM [inhibitor, single point]"
CCN(CC)C(=O)Cn1nnc(-c2ccc(S(C)(=O)=O)cc2)n1,inactive: 105%,
Cc1ccc(S(=O)(=O)Nc2ccccc2CNc2c(C)n(C)n(-c3ccccc3)c2=O)cc1,,"inconclusive: 9.28 µM [inhibitor, partial curve, poor fit]"
COc1ccc(C)cc1NC(=O)c1ccc2c(c1)OCO2,inactive: 23%,
CCOC(=O)c1cc(-c2ccccc2C)n(CC2CC(c3cccc([N+](=O)[O-])c3)=NO2)n1 (configuration not stated),,"inconclusive: 18.5 µM [inhibitor, single point]"

Compound,"activity change, negative = inhibition",Potency
CC(C)OCCCN1CC(=O)N2[C@@H](Cc3c([nH]c4ccccc34)C2(C)C)C1=O,,"inconclusive: 14.7 µM [inhibitor, single point]"
CCN(CC(=O)NCc1ccc(F)cc1)C(=O)CCNS(=O)(=O)c1cccc(C)c1,inactive: -18.9%,
O=C(NCCC(=O)N1CCN(S(=O)(=O)c2ccc(F)cc2)CC1)Nc1ccccc1,,"inconclusive: 11.7 µM [inhibitor, single point]"
CCOc1ccccc1CNC(=O)CCN1C(=O)COc2ccccc21,,"inconclusive: 4.65 µM [inhibitor, partial curve]"
Cc1cccc(N2CCN(C(=O)NCc3ccc(F)cc3)CC2)c1C,,"inconclusive: 14.7 µM [inhibitor, partial curve, poor fit]"
CN(CCc1nc2ccc(Cl)cc2[nH]1)Cc1nc(CC2CC2)no1,,"inconclusive: 18.5 µM [inhibitor, single point]"
CCc1nnc(N/N=C/c2cccs2)n1N,,"inconclusive: 18.5 µM [inhibitor, single point]"
Cn1cc(S(=O)(=O)N2CCCC2)cc1C(=O)NCCc1ccccc1,,active: 2.62 µM
N#CC1(NC(=O)CSc2ccccn2)CCCCC1,inactive: 2.38%,
Cc1cccc(-n2c(C)cc(/C=N/n3cnnc3)c2C)c1,,"inconclusive: 23.3 µM [inhibitor, partial curve, poor fit]"
COc1cccc(-c2ncc3ccccc3c2COC(=O)c2ccc(Br)cc2)c1,,"inconclusive: 2.94 µM [inhibitor, single point]"
COc1ccc2nc(NC(=O)CSc3cn[nH]n3)sc2c1,inactive: 42.6%,
CN1CCN(C(=O)c2ccc3c(Cl)c4c(nc3c2)CCCC4)CC1,,active: 13.1 µM
CN(c1ccccc1)S(=O)(=O)c1cccc(NC(=O)c2cncc(Br)c2)c1,,active: 8.28 µM
N=c1c(C(=O)NC2CCCC2)cc2c(=O)n3ccccc3nc2n1CCCN1CCOCC1,,"inconclusive: 13.1 µM [inhibitor, partial curve, poor fit]"
Cc1ccc(S(=O)(=O)N(C)C)cc1NC(=O)c1ccncc1,inactive: -15.3% [at 5.75 µM],
Cc1cccc(S(=O)(=O)c2c(C)cc(C)nc2Cl)c1,inactive: -11.7%,
Cc1ccc2cc3c(NC(=O)c4ccco4)nn(CC(C)C)c3nc2c1,,"inconclusive: 9.28 µM [inhibitor, single point]"
COc1cccc(/C=N/NC(=S)Nc2cccc(C(=O)O)c2)c1O,,"inconclusive: 20.8 µM [inhibitor, partial curve, poor fit]"
O=C(NCCc1ccccc1)c1ccc([N+](=O)[O-])cc1,,"inconclusive: 11.7 µM [inhibitor, single point]"
COc1ccc(C(=O)N2CCCC(CO)(Cc3ccccc3C)C2)o1 (configuration not stated),,"inconclusive: 7.38 µM [inhibitor, partial curve, poor fit]"
NC(=O)c1ccc(NC(=O)CNC(c2ccccc2)c2ccccc2)cc1,inactive: -15.5%,
CCOC(=O)C1CCCN(C2CC(=O)N(c3cccc(C(F)(F)F)c3)C2=O)C1 (configuration not stated),,"inconclusive: 13.1 µM [inhibitor, single point]"
COc1ccc(CCNC(=O)COC(=O)CCC(=O)c2ccc(F)cc2)cc1OC,,"inconclusive: 0.0329 µM [inhibitor, full curve, poor fit]"

# A few values from above.
# In Potency, COc1cccc(-c2ncc3ccccc3c2COC(=O)c2ccc(Br)cc2)c1 has the entry inconclusive: 2.94 µM [inhibitor, single point]
# In Potency, COc1ccc(C(=O)N2CCCC(CO)(Cc3ccccc3C)C2)o1 (configuration not stated) has the entry inconclusive: 7.38 µM [inhibitor, partial curve, poor fit]
# In Potency, CCOC(=O)C1CCCN(C2CC(=O)N(c3cccc(C(F)(F)F)c3)C2=O)C1 (configuration not stated) has the entry inconclusive: 13.1 µM [inhibitor, single point]

# (further entries)

Compound,"activity change, negative = inhibition",Potency
Cn1cnc2c1c(=O)n(CC(O)CO)c(=O)n2C (configuration not stated),inactive: -10.9%,
O=S(=O)(c1cccc(COc2c(Cl)cccc2Cl)c1)N1CCOCC1,,"inconclusive: 13.1 µM [inhibitor, single point]"
COc1ccc(NC(=O)[C@@H]2CCCN2C(=O)[C@@H]2Cc3ccccc3CN2C(=O)OC(C)(C)C)cc1,,active: 11.7 µM
CCN(CC)c1nc(-c2ccccc2)ncc1S(=O)(=O)c1ccc(C)cc1,inactive: -26%,
COc1ccc(NC(=O)CSc2ccc(C)cc2)cc1,inactive: -21.9%,
CCOC(=O)C1CCN(CC(=O)Nc2ccc(S(=O)(=O)N3CCC(C)CC3)cc2)CC1,,"inconclusive: 11.7 µM [inhibitor, partial curve, poor fit]"
CC(C)c1cc(C(=O)N/N=C/c2cccnc2)cs1,inactive: 20.1%,
CCOc1ccccc1NS(=O)(=O)c1csc(C(N)=O)c1,,"inconclusive: 18.5 µM [inhibitor, single point]"
O=C1/C(=C/c2ccc(F)cc2)SC(=S)N1N1CCOCC1,,"inconclusive: 0.0185 µM [inhibitor, full curve, poor fit]"
Cc1cc(C)c2c(c1)C1C=CCC1C(c1ccc(S(=O)(=O)N3CCOCC3)cc1)N2 (configuration not stated),,"inconclusive: 9.28 µM [inhibitor, partial curve, poor fit]"
COc1ccc(-c2cc(C(=O)N3CCCC3)c3ccccc3n2)cc1,,active: 3.7 µM
COc1ccccc1N(CC(=O)N1CCCCCC1)S(=O)(=O)c1ccc(C)cc1,inactive: 15.4%,
COc1ccc(/C(N)=N/OC(=O)CCCc2ccccc2)cc1OC,inactive: 20.6%,
Cc1nn(-c2cc(N3CCCC3)ccc2[N+](=O)[O-])c(=O)c2ccccc12,,"inconclusive: 3.29 µM [inhibitor, single point]"
Cc1ccsc1C(=O)OCC(=O)Nc1cccc(F)c1,inactive: 133%,
CN(Cc1ccc(OC(F)F)cc1)C(=O)c1ccc2c(=O)n3c(nc2c1)CCC3,,"inconclusive: 11.7 µM [inhibitor, partial curve, poor fit]"
Cc1ccc(C(c2nnnn2CCC(C)C)N2CCN(C)CC2)cc1 (configuration not stated),,"inconclusive: 18.5 µM [inhibitor, single point]"
Cc1ccc(S(C)(=O)=O)cc1C(=O)Nc1ccc(S(=O)(=O)Nc2nccs2)cc1,,"inconclusive: 14.7 µM [inhibitor, partial curve, poor fit]"
COc1ccc(CNC(=O)COC(=O)CCc2c[nH]c3ccccc23)cc1,inactive: -8.07%,
Cc1ccc(NC(=O)c2ccc(NCCN)c([N+](=O)[O-])c2)cc1,,"inconclusive: 6.57 µM [inhibitor, partial curve, poor fit]"
CC(C)NC(=O)NC(=O)COC(=O)c1ccc(NC(=O)CC#N)cc1,,"inconclusive: 3.29 µM [inhibitor, partial curve, poor fit]"
CCCn1c(SCc2nc3sc(C)c(C)c3c(=O)[nH]2)nc2ccccc2c1=O,,"inconclusive: 10.4 µM [inhibitor, single point]"
O=C(O)CSCC(=O)N1CCCCC1,,"inconclusive: 10.4 µM [inhibitor, single point]"
COc1ccccc1N1CCN(C(=O)CC(NC(=O)c2ccccc2Cl)c2ccccc2)CC1 (configuration not stated),,"inconclusive: 11.7 µM [inhibitor, partial curve, poor fit]"
